These results are taken from article PMC8291807.

By UniProt entry, the sequences of proteins in these tests, tags left out.
UniProt P35222: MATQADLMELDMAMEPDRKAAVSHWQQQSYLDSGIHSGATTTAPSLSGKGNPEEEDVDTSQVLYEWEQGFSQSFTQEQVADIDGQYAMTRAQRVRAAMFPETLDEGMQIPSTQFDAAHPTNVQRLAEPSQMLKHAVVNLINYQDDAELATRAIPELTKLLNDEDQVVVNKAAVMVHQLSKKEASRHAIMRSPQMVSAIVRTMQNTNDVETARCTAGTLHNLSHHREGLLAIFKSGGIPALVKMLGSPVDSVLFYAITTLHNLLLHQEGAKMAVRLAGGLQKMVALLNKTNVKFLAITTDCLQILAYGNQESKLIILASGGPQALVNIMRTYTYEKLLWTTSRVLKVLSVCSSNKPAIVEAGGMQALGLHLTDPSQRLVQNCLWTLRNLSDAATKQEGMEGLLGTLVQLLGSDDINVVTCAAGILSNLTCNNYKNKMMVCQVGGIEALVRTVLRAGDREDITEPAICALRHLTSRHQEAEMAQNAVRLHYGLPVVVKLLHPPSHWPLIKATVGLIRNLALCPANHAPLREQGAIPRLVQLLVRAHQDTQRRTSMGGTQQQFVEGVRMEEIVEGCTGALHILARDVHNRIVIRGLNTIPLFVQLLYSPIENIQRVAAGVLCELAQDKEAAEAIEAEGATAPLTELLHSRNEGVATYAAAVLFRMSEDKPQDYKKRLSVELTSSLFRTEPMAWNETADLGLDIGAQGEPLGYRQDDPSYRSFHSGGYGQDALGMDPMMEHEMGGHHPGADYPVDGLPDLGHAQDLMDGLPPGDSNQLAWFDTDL
UniProt Q9UJU2: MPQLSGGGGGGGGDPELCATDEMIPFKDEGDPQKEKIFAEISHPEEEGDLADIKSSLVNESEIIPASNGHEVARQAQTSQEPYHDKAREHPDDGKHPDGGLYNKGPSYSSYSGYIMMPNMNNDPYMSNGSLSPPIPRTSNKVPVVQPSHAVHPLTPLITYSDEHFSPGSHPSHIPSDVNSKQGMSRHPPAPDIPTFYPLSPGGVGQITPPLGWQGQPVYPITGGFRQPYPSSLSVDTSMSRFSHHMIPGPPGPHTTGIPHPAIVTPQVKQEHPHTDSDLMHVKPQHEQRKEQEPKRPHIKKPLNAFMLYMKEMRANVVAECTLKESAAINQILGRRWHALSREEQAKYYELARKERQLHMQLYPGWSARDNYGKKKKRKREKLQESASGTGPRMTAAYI

These are yes or no findings as the source states them, for the method shown. Binding seen in cells or lysates may run through a third protein. Some results given as binding are weak or reduced against the parent protein; the word gives no strength.

For this assay, the target named is phospho-β-catenin (human (endogenous in T24 and 5637)) (UniProt P35222). Kind of assay: co-IP; endogenous proteins of T24 and 5637 cells treated with Rosiglitazone (20 μM) or GW9662 (20 μM); pulled by phospho-β-catenin, LEF1 detected; more LEF1 with GW9662, less with Rosiglitazone.

Consider LEF1 (from UniProt Q9UJU2 1-399), for which the binding result was “binds”.
